Assay results published in patent publication US20220387630A1, “METHOD FOR SCREENING ANTICANCER AGENT AND COMBINATION DRUG OF KINASE INHIBITORS FOR TREATMENT OF PANCREATIC CANCER” (National University Corporation Hokkaido University, priority 2020, published 2022).
For at least one compound, name, drawing or mass did not settle the structure.

Assays:
[1] = tested on: MIA PaCa-2 cells; experiment: Efficacy in cancer-bearing mice with subcutaneously implanted MIA PaCa-2 cells; type: in vivo, BALB/c-nu/nu immunodeficient nude mice; settings: oral, 5 days per week; n=8; 21st day after administration
[2] = tested on: MIA PaCa-2 cells; experiment: MTS cell viability assay in human pancreatic cancer cells; type: cell-based; settings: used alone, 72 hours, ratio to solvent control
Procedure: Example 4 Evaluation of efficacy of kinase inhibitor with use of human pancreatic cancer cells Human pancreatic cancer cell line (MIA PaCa-2) was purchased from National Institute of RIKEN BioResource Research Center, and cultured in Dulbecco's Modified Eagle's Medium (Nacalai tesque) supplemented with 10% fetal bovine serum (Gibco) and 1% penicillin-streptomycin (Nacalai tesque) at 37° C. in the presence of 5% CO2.
Trametinib (DMSO only, 1 μM, 300 μM), Adavosertib (300 μM, 1 mM), AD80 (30 μM, 3 mM), Alisertib (30 μM, 1 mM) and BI-831266 (3 μM, 3 mM) was each prepared and diluted to 100-fold in the medium to produce a drug solution.
MIA PaCa-2 cells were seeded into a 96-well plate at 1000 cells/well (in 100 μL medium). After culturing for one day, 10 μL of the drug solution of Trametinib alone or Trametinib combined with another kinase inhibitor was added to the cells in each well on the 96-well plate (0.2% final concentration of DMSO). Each combination was tested in five wells. After the addition of the drug solution, the cells were cultured at 37° C. for 72 hours in the presence of 5% CO2, and then the cell viability was measured using MTS assay (CellTiter 96 (registered trademark), Promega). The viability is expressed as a ratio to that of a control (solvent only).

## CC(=O)Nc1cccc(-n2c(=O)n(C3CC3)c(=O)c3c(Nc4ccc(I)cc4F)n(C)c(=O)c(C)c32)c1 [Trametinib]
[1]
  mice exhibiting partial remission (reduction in tumor volume by 30% or more) or complete remission (tumor disappearance): none of mice exhibited partial or complete remission
[2]
  cell viability: reduced the cell viability in a dose-dependent manner
